PubChem BioAssay AID1259405 – NCATS, 2018

- Test: 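Silenced genes that increase secreted GFP made by CHO cells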 (primary screen)
- Cells: Chinese hamster CHO-K1 ovary cells with stable secreted eGFP expression
- Knock-down reagent: single siRNA against mouse genes, 0.8 pmol siRNA per well (2 µl of 400 nM stock)
- Time to read-out: 3 days
- Measurement: 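Percent of the per-plate non-targeting control median for intracellular GFP per well by laser scanning cytometry and for cell viability by ATP luminescence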
- Scale: GFP, % of control: higher = more GFP per well, higher productivity; viability (ATP), % of control: higher = more viable cells (more ATP)
- Active means: 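Called active when intracellular GFP, relative to negative control, is at or above 120%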
In all, the deposit lists about 50,000 reagents; this is an unselected part. About 4,000 of all reagents (8%) count as active. 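Mouse siRNA library applied to hamster cells; one well for each siRNA.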 A number with no mark means an inactive call. Reagents against one gene are numbered here. No sequences are given here.

| Gene | siRNA no. | GFP, % of control | viability (ATP), % of control |
| --- | --- | --- | --- |
| Lbx1 | 1 | 104 | 92.1 |
| Lbx1 | 2 | 112 | 91.9 |
| Lbx1 | 3 | 52.6 | 60.7 |
| Cyp2c70 | 1 | 82.6 | 57.1 |
| Cyp2c70 | 2 | 109 | 98.5 |
| Cyp2c70 | 3 | 84.3 | 81.9 |
| Snrpa1 | 1 | 141 (active) | 103 |
| Snrpa1 | 2 | 86.4 | 64.3 |
| Npr3 | 1 | 52.1 | 42.7 |
| Npr3 | 2 | 63 | 75.4 |
| Npr3 | 3 | 22.6 | 17.5 |
| Slc12a1 | 1 | 61.8 | 51.1 |
| Slc12a1 | 2 | 59.3 | 62 |
| Slc12a1 | 3 | 62.1 | 96.3 |
| Rsph3a | 1 | 59.1 | 45.7 |
| Rsph3a | 2 | 82.1 | 76.8 |
| Rsph3a | 3 | 77.6 | 92.6 |
| Dazl | 1 | 84 | 89.3 |
| Dazl | 2 | 102 | 98.6 |
| Dazl | 3 | 95.9 | 67.3 |
| Or9s27 | 1 | 115 | 85.7 |
| Or9s27 | 2 | 140 (active) | 78.5 |
| Or9s27 | 3 | 81.9 | 92.7 |
| Cul4a | 1 | 73.1 | 86.5 |
| Cul4a | 2 | 52.3 | 74.4 |
| Cul4a | 3 | 66.3 | 98.6 |
| Zfp317 | 1 | 60.5 | 50.6 |
| Zfp317 | 2 | 112 | 80.7 |
| Mynn | 1 | 85.7 | 63.2 |
| Mynn | 2 | 74.3 | 79.7 |
| Mynn | 3 | 46.9 | 77.4 |
| Spred1 | 1 | 89.2 | 83.6 |
| Spred1 | 2 | 101 | 80.2 |
| Spred1 | 3 | 48.2 | 50.9 |
| Psmd8 | 1 | 70 | 102 |
| Psmd8 | 2 | 20.5 | 4.76 |
| Psmd8 | 3 | 11.2 | 8.03 |
| Zfp316 | 1 | 43.3 | 41.4 |
| Zfp316 | 2 | 71.9 | 77.6 |
| Zfp316 | 3 | 65.5 | 74.7 |
| Klf2 | 1 | 88.4 | 99 |
| Klf2 | 2 | 89.9 | 76.3 |
| Klf2 | 3 | 71.3 | 55.9 |
| Lrrcc1 | 1 | 107 | 121 |
| Lrrcc1 | 2 | 47.9 | 72.2 |
| Lrrcc1 | 3 | 34.1 | 96.3 |
| Endod1 | 1 | 73.3 | 75.1 |
| Endod1 | 2 | 82.7 | 79.8 |
| Zfp619 | 1 | 57.6 | 81 |
| Zfp619 | 2 | 58.1 | 75.3 |
| Igfbp5 | 1 | 81.2 | 73.5 |
| Igfbp5 | 2 | 43.1 | 44.7 |
| Igfbp5 | 3 | 85.1 | 84.8 |
| Rtkn | 1 | 173 (active) | 119 |
| Rtkn | 2 | 115 | 83.4 |
| Rtkn | 3 | 95.2 | 67 |
| Wfdc15b | 1 | 70 | 55.7 |
| Wfdc15b | 2 | 67.4 | 55.8 |
| Wfdc15b | 3 | 65.2 | 94.3 |
| Trim66 | 1 | 81.3 | 79.7 |
| Trim66 | 2 | 43.4 | 47.2 |
| Trim66 | 3 | 86.7 | 97.2 |
| Pofut4 | 1 | 110 | 121 |
| Pofut4 | 2 | 105 | 121 |
| Pofut4 | 3 | 108 | 133 |
| Kti12 | 1 | 80.4 | 100 |
| Kti12 | 2 | 87 | 86.8 |
| Vmn2r1 | 1 | 70.8 | 67.7 |
| Vmn2r1 | 2 | 60.3 | 54.6 |
| Vmn2r1 | 3 | 67.8 | 73.9 |
| Kcnab1 | 1 | 91.6 | 78 |
| Kcnab1 | 2 | 95.9 | 69.7 |
| Kcnab1 | 3 | 83.5 | 72 |
| Efhc2 | 1 | 65.4 | 67.1 |
| Efhc2 | 2 | 41.8 | 49.7 |
| Efhc2 | 3 | 92.6 | 88.4 |
| Chrnb2 | 1 | 57.1 | 79.6 |
| Chrnb2 | 2 | 62.5 | 81.7 |
| Chrnb2 | 3 | 100 | 110 |
| Igtp | 1 | 81 | 74.6 |
| Igtp | 2 | 48.2 | 50.7 |
| Igtp | 3 | 90.3 | 76.7 |
| Or5p58 | 1 | 84.1 | 37.5 |
| Or5p58 | 2 | 107 | 87.5 |
| Or5p58 | 3 | 93.4 | 61.3 |

Reformatted: 8 of the entries above.
Gene	siRNA no.	GFP, % of control	viability (ATP), % of control
Or9s27	3	81.9	92.7
Cul4a	1	73.1	86.5
Cul4a	2	52.3	74.4
Cul4a	3	66.3	98.6
Zfp317	1	60.5	50.6
Zfp317	2	112	80.7
Mynn	1	85.7	63.2
Mynn	2	74.3	79.7
